Laboratory results published in the supplement of paper PMC10849652.
The list shows a part of the results.

By UniProt entry, the sequences of proteins in these tests, tags left out. Where a name states a change or a piece, a line headed by the entry shows the natural chain unless it says otherwise.
UniProt Q9BQA9: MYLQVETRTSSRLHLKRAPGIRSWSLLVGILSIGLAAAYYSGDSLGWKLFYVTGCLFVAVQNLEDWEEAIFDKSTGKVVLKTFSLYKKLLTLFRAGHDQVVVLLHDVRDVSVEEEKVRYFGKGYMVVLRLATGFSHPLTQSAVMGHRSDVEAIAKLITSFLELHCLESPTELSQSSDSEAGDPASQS
UniProt P01034: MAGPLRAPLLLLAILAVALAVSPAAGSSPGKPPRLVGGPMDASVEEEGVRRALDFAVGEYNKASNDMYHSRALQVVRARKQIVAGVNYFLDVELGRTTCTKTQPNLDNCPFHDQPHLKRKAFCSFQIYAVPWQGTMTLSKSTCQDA
UniProt Q96SQ9: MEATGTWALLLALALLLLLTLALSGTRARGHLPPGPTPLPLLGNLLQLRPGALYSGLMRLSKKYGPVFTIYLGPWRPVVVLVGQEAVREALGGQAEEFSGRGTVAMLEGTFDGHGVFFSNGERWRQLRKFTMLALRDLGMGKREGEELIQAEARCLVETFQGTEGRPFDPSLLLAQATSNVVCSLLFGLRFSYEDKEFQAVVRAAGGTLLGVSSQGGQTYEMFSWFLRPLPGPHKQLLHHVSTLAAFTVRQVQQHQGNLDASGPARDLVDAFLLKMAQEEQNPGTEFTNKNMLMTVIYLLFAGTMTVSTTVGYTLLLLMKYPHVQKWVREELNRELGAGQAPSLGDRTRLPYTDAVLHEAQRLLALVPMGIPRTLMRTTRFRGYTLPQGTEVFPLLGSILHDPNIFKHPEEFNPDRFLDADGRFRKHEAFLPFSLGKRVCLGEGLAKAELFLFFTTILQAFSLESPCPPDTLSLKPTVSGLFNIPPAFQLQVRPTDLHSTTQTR
UniProt P07108: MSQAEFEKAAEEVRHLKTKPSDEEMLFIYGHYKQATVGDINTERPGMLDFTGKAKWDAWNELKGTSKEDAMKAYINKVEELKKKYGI
UniProt P0DMU9: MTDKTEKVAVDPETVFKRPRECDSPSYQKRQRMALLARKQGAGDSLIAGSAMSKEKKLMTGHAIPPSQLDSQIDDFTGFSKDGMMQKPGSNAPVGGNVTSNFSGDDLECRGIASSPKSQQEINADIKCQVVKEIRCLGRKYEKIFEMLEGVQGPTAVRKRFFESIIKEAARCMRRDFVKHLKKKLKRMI
UniProt Q05048: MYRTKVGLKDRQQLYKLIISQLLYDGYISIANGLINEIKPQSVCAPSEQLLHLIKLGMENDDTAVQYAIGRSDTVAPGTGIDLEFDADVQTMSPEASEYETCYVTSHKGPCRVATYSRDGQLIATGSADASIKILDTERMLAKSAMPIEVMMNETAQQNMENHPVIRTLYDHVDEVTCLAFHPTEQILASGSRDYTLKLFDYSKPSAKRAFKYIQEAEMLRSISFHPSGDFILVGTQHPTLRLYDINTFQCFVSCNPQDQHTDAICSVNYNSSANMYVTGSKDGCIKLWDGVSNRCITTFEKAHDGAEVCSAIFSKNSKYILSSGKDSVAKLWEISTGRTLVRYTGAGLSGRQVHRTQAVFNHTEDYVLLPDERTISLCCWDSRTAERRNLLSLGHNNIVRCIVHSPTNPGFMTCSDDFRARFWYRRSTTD
UniProt Q9H0L4: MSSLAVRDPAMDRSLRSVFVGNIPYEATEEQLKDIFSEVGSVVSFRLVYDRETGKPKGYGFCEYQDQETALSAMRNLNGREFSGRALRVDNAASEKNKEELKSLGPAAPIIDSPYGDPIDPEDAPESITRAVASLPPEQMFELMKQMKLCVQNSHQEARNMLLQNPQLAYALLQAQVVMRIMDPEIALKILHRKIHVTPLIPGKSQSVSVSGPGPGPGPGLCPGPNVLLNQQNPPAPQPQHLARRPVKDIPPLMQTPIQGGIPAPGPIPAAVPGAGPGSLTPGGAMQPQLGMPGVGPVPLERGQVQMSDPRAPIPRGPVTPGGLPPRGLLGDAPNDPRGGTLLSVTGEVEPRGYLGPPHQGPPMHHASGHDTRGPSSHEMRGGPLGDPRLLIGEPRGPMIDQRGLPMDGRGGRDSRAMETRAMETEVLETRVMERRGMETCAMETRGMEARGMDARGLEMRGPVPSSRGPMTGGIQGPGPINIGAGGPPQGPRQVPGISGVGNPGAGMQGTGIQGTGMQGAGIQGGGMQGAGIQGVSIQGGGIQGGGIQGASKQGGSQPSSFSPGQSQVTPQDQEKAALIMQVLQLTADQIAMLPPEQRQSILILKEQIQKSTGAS
UniProt P50461: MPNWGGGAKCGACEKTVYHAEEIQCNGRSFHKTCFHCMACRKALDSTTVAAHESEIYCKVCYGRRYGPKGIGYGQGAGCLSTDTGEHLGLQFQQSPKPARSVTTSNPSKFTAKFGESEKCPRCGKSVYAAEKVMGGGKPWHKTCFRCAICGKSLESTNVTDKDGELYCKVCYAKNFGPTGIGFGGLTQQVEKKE
UniProt Q8NBI2: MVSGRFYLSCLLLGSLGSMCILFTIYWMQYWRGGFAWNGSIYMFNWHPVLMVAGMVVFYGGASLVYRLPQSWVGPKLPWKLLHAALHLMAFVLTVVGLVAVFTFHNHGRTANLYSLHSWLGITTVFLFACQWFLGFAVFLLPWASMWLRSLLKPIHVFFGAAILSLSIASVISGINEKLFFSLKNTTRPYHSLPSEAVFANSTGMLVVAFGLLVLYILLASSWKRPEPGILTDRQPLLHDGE
UniProt Q16643: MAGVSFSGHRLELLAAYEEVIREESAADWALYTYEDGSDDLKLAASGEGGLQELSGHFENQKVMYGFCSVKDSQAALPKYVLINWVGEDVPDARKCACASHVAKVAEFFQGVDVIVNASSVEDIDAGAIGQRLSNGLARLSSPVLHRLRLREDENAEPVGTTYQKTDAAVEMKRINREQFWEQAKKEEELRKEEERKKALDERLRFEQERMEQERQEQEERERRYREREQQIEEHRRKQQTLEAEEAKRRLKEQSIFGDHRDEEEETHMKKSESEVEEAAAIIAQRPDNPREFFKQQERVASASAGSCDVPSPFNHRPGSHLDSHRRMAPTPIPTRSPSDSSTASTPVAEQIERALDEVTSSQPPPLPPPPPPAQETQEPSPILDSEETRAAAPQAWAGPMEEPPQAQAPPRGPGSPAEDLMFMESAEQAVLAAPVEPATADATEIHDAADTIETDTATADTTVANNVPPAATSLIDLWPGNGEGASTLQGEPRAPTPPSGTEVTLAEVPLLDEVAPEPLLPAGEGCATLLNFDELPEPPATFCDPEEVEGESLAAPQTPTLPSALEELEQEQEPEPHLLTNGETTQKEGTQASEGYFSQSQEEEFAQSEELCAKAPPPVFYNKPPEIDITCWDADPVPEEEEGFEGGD
UniProt Q8NA75: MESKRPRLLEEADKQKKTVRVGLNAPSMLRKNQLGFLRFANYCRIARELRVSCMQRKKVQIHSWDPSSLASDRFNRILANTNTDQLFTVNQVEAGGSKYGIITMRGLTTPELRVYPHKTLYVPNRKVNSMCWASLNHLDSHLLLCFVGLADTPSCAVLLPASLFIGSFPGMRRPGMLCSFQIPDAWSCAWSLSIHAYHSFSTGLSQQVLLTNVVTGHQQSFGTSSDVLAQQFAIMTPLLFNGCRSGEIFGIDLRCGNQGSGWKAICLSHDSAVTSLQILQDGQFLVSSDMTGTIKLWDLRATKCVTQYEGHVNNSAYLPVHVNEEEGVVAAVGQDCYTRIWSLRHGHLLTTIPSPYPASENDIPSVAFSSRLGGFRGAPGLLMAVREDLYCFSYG
UniProt P49447: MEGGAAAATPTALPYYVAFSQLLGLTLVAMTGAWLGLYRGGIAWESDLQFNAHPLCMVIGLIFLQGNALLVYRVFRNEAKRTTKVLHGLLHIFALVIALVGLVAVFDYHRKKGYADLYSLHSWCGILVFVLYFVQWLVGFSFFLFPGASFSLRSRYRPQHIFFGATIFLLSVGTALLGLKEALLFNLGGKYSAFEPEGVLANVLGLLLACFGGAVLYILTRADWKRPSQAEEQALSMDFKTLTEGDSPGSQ
UniProt P51397: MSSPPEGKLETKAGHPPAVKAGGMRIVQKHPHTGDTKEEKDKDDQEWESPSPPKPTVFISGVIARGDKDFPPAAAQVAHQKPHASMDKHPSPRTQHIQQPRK
UniProt Q2VPK5: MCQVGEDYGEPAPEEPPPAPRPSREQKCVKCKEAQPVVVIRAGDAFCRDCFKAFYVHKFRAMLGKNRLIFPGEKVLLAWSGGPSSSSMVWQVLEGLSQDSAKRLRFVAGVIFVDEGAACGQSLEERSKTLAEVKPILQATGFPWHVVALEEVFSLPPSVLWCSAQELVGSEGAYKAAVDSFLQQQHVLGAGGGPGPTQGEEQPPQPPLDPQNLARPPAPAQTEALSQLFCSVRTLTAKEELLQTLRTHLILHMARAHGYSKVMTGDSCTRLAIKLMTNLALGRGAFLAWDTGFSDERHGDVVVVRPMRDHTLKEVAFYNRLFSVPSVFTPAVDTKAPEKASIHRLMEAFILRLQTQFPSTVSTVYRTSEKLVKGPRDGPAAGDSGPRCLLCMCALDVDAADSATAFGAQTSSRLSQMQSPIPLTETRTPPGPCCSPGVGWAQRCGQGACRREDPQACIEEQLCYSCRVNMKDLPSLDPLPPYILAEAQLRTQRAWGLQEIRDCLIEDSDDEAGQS
UniProt Q8N8Z6: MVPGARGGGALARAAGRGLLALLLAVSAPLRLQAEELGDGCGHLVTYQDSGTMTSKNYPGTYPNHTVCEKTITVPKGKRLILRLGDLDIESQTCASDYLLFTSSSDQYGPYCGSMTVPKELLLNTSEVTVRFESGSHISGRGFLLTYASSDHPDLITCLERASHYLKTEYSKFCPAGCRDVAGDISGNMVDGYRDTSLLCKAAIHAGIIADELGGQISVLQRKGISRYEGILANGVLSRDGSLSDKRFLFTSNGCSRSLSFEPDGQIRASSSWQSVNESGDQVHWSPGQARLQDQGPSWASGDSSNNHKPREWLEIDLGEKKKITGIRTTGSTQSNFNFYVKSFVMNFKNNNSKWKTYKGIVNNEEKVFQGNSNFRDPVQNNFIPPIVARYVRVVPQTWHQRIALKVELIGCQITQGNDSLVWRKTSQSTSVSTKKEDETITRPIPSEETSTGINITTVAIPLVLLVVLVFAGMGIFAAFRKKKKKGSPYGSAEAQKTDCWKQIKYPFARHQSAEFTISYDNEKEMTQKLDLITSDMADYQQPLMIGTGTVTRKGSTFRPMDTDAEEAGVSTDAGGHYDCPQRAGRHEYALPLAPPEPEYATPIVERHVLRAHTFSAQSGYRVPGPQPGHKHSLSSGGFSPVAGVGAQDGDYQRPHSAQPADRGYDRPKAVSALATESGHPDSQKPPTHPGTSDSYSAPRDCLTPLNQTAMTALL
UniProt O95715: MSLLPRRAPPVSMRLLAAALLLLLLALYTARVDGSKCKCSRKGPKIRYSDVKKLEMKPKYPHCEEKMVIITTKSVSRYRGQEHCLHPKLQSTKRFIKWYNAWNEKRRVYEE
UniProt Q86T65: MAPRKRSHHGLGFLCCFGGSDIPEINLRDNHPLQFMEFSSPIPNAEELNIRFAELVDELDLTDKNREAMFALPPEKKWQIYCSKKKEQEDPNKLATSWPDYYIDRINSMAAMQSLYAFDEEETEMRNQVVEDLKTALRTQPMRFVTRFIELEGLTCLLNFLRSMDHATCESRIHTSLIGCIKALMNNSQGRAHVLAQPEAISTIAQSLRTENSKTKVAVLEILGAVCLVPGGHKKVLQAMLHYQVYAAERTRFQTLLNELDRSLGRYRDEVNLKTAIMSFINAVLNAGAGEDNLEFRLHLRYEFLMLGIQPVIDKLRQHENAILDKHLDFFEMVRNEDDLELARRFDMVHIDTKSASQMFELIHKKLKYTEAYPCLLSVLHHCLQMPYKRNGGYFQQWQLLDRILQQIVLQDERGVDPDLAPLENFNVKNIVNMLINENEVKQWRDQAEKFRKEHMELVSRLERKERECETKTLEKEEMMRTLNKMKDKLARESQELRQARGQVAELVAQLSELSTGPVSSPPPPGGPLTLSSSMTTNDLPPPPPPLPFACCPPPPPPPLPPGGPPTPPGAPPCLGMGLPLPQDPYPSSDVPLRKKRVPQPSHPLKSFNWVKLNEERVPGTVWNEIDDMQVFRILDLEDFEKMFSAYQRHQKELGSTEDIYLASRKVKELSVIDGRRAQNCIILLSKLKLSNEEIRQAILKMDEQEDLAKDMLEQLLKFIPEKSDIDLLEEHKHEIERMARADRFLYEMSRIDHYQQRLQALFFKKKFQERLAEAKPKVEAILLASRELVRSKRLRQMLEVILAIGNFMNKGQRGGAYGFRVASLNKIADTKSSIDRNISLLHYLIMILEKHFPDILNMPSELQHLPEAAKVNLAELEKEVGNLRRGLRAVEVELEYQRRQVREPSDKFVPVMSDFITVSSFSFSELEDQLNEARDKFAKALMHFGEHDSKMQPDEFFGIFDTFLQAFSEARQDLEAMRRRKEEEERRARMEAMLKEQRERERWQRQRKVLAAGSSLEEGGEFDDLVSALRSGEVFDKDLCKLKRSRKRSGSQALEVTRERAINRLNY
UniProt Q9H9R9: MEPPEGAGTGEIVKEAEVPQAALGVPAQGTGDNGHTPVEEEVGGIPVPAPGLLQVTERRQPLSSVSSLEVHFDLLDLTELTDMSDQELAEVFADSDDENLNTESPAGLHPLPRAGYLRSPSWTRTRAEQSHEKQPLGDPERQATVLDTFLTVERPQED

How the values were obtained:
Assay in all cases: log2 fold change, soluble protein after heating vs DMSO (PISA); higher = thermal stabilisation; K562 cells, 10 uM, 30 min; active = over 0.2 and 3.5 SD of the protein, either way, in both replicates (recomputed)
erlotinib = compound: C#Cc1cccc(Nc2ncnc3cc(OCCOC)c(OCCOC)cc23)c1 [erlotinib]
Outline: (§1)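 K562 cells at 2×10^6 cells/mL were treated with 10 μM compound for 30 min. Aliquots were heated for 3 min across 48°C-58°C, pooled, and extracted in PBS with 0.5% NP-40 at 4°C; soluble protein was the supernatant after 21,000xg for 90 min. Soluble protein was quantified by TMTpro 16plex LC-MS/MS with channel sums equalised, and reported as log2 fold change in thermal stability against DMSO controls, with values from duplicates.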

[1] = compound: C/C(=N\NC(=O)C1=CC(=CC=C1)S(=O)(=O)N2CCOCC2)/C3=C(C=CC(=C3)Cl)O
Outline: as §1

[2] = compound: C1=CC(=C(C=C1Cl)C2=NC3=NC=CN=C3C(=N2)NC4=CC=NC=C4)F
Outline: as §1

[3] = compound: C1=CC(=CC=C1C2=NC3=C(N2)C=C(C=C3)C(=O)N)OC4=CC=C(C=C4)Cl
Outline: as §1

[4] = compound: C1=CC2=C(C=CC(=C2)/C=C\3/C(=O)NC(=NCC4=CC=CS4)S3)N=C1
Outline: as §1

[5] = compound: C1=CC2=NC=CN=C2C=C1/C=C/3\C(=O)NC(=O)S3
Outline: as §1

[6] = compound: C1=CC=C(C=C1)C2=NC(=C(N2)C3=CC=NC=C3)C4=CC(=C(C=C4)Cl)O
Outline: as §1

[7] = compound: C1=CC=C2C(=C1)C3=NNC4=CC=CC(=C43)C2=O
Outline: as §1

[8] = compound: C1CCN(C1)C(=O)NC2=CC=CC(=C2)NC3=NC=C(C(=N3)NCCC4=CN=CN4)Br
Outline: as §1

[9] = compound: C1CN(CCC1(CC2=CC=C(C=C2)Cl)N)C3=NC=NC4=C3C=CN4
Outline: as §1

Measured: log2 fold change

CYBC1 (UniProt Q9BQA9)
inactive: erlotinib 0.015 | [1] 0.04 | [2] 0.06 | [3] 0.016 | [4] -0.003 | [5] 0.05 | [6] 0 | [7] -0.003 | [8] 0.016 | [9] 0.096

CST3 (UniProt P01034)
inactive: erlotinib -0.138 | [1] -0.028 | [2] 0.095 | [3] -0.033 | [4] -0.043 | [5] 0.038 | [6] -0.001 | [7] -0.071 | [8] 0.013 | [9] 0.08

CYP2S1 isoform 2 (UniProt Q96SQ9)
inactive: erlotinib 0.008 | [1] -0.025 | [3] 0.032 | [4] 0.359 | [5] -0.056 | [6] 0.096 | [7] -0.09

CYTH2 (UniProt Q99418)
inactive: erlotinib 0.014 | [1] 0.195 | [3] 0.005 | [4] 0.224 | [5] -0.017 | [7] -0.021 | [8] 0.052 | [9] -0.308

DBI isoform 5 (UniProt P07108)
inactive: erlotinib -0.038 | [1] -0.035 | [2] 0.187 | [3] -0.005 | [4] 0.051 | [5] 0.002 | [6] -0.023 | [7] 0.023 | [8] 0.003 | [9] -0.01

CUX1 isoform 2 (UniProt Q13948)
inactive: erlotinib -0.025 | [1] 0.017 | [2] 0.012 | [3] 0.036 | [4] 0.014 | [5] -0.031 | [6] -0.043 | [7] 0.009 | [8] -0.009 | [9] -0.031

CT45A10 (UniProt P0DMU9)
inactive: erlotinib -0.051 | [1] -0.095 | [2] -0.337 | [3] 0.028 | [4] -0.079 | [5] 0.024 | [6] 0.055 | [7] -0.033 | [8] 0.015 | [9] -0.161

CYSTM1 (UniProt Q9H1C7)
inactive: erlotinib 0.037 | [1] -0.064 | [3] 0.001 | [4] -0.197 | [5] 0.204 | [6] -0.033 | [7] -0.078 | [8] -0.117 | [9] 0.074

CSTF1 (UniProt Q05048)
inactive: erlotinib -0.03 | [1] -0.001 | [2] 0 | [3] 0.037 | [4] 0.002 | [5] 0.035 | [6] -0.073 | [7] 0.015 | [8] 0.014 | [9] 0.006

DCTN5 (UniProt Q9BTE1)
inactive: erlotinib 0.02 | [1] -0.01 | [3] 0.021 | [4] 0.025 | [5] 0.006 | [6] -0.04 | [7] -0.021 | [8] -0.023 | [9] 0.038

CYFIP1 (UniProt Q7L576)
inactive: erlotinib -0.016 | [1] 0.066 | [2] 0.07 | [3] 0.018 | [4] 0.002 | [5] 0.026 | [6] 0.003 | [7] -0.016 | [8] 0.005 | [9] 0.059

CYP4V2 (UniProt Q6ZWL3)
inactive: erlotinib 0.022 | [1] 0.047 | [2] -0.082 | [3] 0.154 | [4] -0.009 | [6] 0.087 | [7] -0.071

CSTF2T (UniProt Q9H0L4)
inactive: erlotinib -0.009 | [1] 0.004 | [2] -0.027 | [3] -0.021 | [4] 0.03 | [5] 0.03 | [6] -0.005 | [7] 0.017 | [8] 0.06 | [9] -0.026

CSRP3 (UniProt P50461)
inactive: erlotinib 0.086 | [1] -0.072 | [3] -0.203 | [4] 0.039 | [5] 0.02 | [6] -0.061 | [7] -0.053 | [8] 0.025 | [9] 0.027

CTCF (UniProt P49711)
inactive: erlotinib -0.104 | [1] -0.171 | [2] -0.396 | [3] 0.106 | [4] -0.014 | [5] 0.084 | [6] -0.169 | [7] -0.004 | [8] 0.013 | [9] -0.092

CYB561A3 isoform 2 (UniProt Q8NBI2)
inactive: erlotinib -0.021 | [1] -0.016 | [3] 0.02 | [4] -0.005 | [5] 0.114 | [6] 0.043 | [7] -0.034 | [8] -0.01 | [9] 0.069

DBN1 isoform 3 (UniProt Q16643)
inactive: erlotinib -0.095 | [1] -0.047 | [2] -0.028 | [3] 0.039 | [4] -0.074 | [5] 0.02 | [6] 0.021 | [7] -0.029 | [8] 0.089 | [9] 0.041

CTBP1 (UniProt Q13363)
inactive: erlotinib 0.014 | [1] -0.02 | [2] 0.008 | [3] 0.021 | [4] 0.02 | [5] -0.007 | [6] -0.007 | [7] 0.024 | [8] -0.012 | [9] 0.057

DARS (UniProt P14868)
inactive: erlotinib 0.002 | [1] 0.003 | [2] -0.06 | [3] 0.002 | [4] -0.026 | [5] 0.011 | [6] -0.021 | [7] -0.023 | [8] 0.008 | [9] 0.015

CUX1 isoform 3 (UniProt P39880)
inactive: erlotinib 0.013 | [1] 0 | [2] 0.034 | [3] -0.015 | [4] -0.008 | [5] 0.11 | [6] -0.074 | [7] 0.01 | [8] -0.003 | [9] 0.092

DCAF4L2 (UniProt Q8NA75)
inactive: erlotinib 0.053 | [1] 0.017 | [3] -0.079 | [4] 0.01 | [5] 0.058 | [6] -0.075 | [7] -0.07 | [8] -0.075 | [9] 0.017

CYB561 (UniProt P49447)
inactive: erlotinib -0.103 | [1] 0.165 | [3] 0.017 | [4] -0.124 | [5] 0.09 | [6] 0.155 | [7] 0.049 | [8] -0.075 | [9] 0.082

CUL4A (UniProt Q13619)
inactive: erlotinib 0.014 | [1] 0.031 | [2] 0.044 | [3] -0.016 | [4] 0.05 | [5] -0.01 | [6] 0.029 | [7] -0.007 | [8] -0.009 | [9] 0.024

DAP (UniProt P51397)
inactive: erlotinib 0.01 | [1] -0.036 | [2] 0.075 | [3] 0.007 | [4] -0.003 | [5] 0.057 | [6] 0.003 | [7] -0.026 | [8] 0.032 | [9] 0.024

CYBA (UniProt P13498)
inactive: erlotinib -0.075 | [1] 0.096 | [2] -0.005 | [3] 0.025 | [4] 0.042 | [5] 0.032 | [6] 0.03 | [7] -0.072 | [8] -0.012 | [9] -0.005

CYFIP2 (UniProt Q96F07)
inactive: erlotinib -0.056 | [1] 0.075 | [2] 0.022 | [3] 0.027 | [4] 0.045 | [5] 0.017 | [6] 0.027 | [7] -0.019 | [8] -0.006 | [9] 0.041

CTU2 (UniProt Q2VPK5)
inactive: erlotinib 0.024 | [1] 0.017 | [2] 0.004 | [3] 0.03 | [4] 0.022 | [5] 0.008 | [6] -0.008 | [7] 0.011 | [8] 0.013 | [9] 0.021

Two records picked at random from those above, as already listed:
CST3 (UniProt P01034)
inactive: erlotinib -0.138 | [1] -0.028 | [2] 0.095 | [3] -0.033 | [4] -0.043 | [5] 0.038 | [6] -0.001 | [7] -0.071 | [8] 0.013 | [9] 0.08

CTCF (UniProt P49711)
inactive: erlotinib -0.104 | [1] -0.171 | [2] -0.396 | [3] 0.106 | [4] -0.014 | [5] 0.084 | [6] -0.169 | [7] -0.004 | [8] 0.013 | [9] -0.092

More results.

CTPS1 isoform 2 (UniProt P17812)
inactive: [1] -0.256 | [4] 0.274 | [7] -0.181

DCBLD1 (UniProt Q8N8Z6)
inactive: [2] 0.034

CXCL14 (UniProt O95715)
inactive: [5] -0.117

DAAM2 (UniProt Q86T65)
inactive: erlotinib -0.121 | [2] -0.123 | [3] 0.093 | [5] -0.136 | [6] -0.209

DBNDD1 isoform 3 (UniProt Q9H9R9)
inactive: erlotinib 0.184 | [2] 0.093 | [3] -0.508
